Experimental data from patent US8829195B2, “Compounds and compositions for inhibiting the activity of ABL1, ABL2 and BCR-ABL1” (Novartis AG, priority 2012, dated 2014).
Some of these results come from one statement about several compounds together.

Tested on: BCR-ABL1+KCL-22 cells
Assay: Acquired resistance in BCR-ABL1+KCL-22 cells in vitro
Type: cell-based, human
Conditions: cells treated every 3-4 days

Cc1cn(-c2cc(NC(=O)c3ccc(C)c(Nc4nccc(-c5cccnc5)n4)c3)cc(C(F)(F)F)c2)cn1 [nilotinib]
time to acquired resistance: 18 to 21 days
